From PubChem BioAssay AID1347075 (National Center for Advancing Translational Sciences (NCATS), 2019)
Hit rate of the full screen: of about 400,000 compounds, about 5,500 (1.4%) were called active. Inconclusive results, whose numbers are uncertain, are shown with a selection of clear calls. Calls follow the shape of the dose curve; as a rule, active = well fitted cell-killing curve with a large enough effect; inconclusive = small, poorly fitted or top-dose-only effect, or effect the other way; inactive = flat fitted curve, though single readings scatter. Potencies beside an inconclusive call are fits to weak or partial responses and may not hold up.

Experiment: qHTS assay for MDR1-selective chemotherapeutics: Primary screen using the parental adenocarcinoma cell KB-3-1; also: nearly all actives have a fitted effect of over 60% in size
Conditions: KB-3-1 viability, CellTiter-Glo ATP luminescence, 72 h; series mostly up to 46.1 µM
In short: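 Viability of parental KB-3-1 cells, measured by CellTiter-Glo luminescence, followed a 72 h incubation at 37 °C with pinned compounds in phenol-red-free DMEM containing 10% FBS.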
Potency is read from the fitted curve at half-maximal effect.

| SMILES | Potency |
| --- | --- |
| NC1=C([N+](=O)[O-])C(c2ccc3c(c2)OCO3)C2=C(CCCC2=O)O1 (configuration not stated) | inconclusive: 2.91 µM [cytotoxic, partial curve, poor fit] |
| Cc1ccc(O)c(C2=Nc3ccccc3N=C(c3cccs3)C2)c1 | inconclusive: 32.6 µM [cytotoxic, single point] |
| COc1cccc(/C=N/n2c(C)nc3ccccc32)c1OC | inactive |
| Cc1cccc(NC(=O)CN(C)C(=O)C2CC2)c1C | inactive |
| CCCN(CC(=O)Nc1ccccc1C)C(=O)c1cccc(S(=O)(=O)N2CCc3ccccc3C2)c1 | inconclusive: 23.1 µM [cytotoxic, single point] |
| CCc1nnc(NC(=O)c2ccc(S(=O)(=O)N(C)c3ccccc3)cc2)o1 | inconclusive: 29.1 µM [cytotoxic, single point] |
| COc1ccc(F)cc1-c1cc(NC=O)c2ncc(-c3cccc(C(F)(F)F)c3)n2c1 | active: 23.1 µM |
| O=C(CN(Cc1ccc(F)cc1)C(=O)CCC(=O)Nc1nccs1)NCc1ccccc1 | inactive |
| COc1ccc(C(=O)Nc2ccc(NC(=O)c3ccccn3)cn2)cc1 | inactive |
| COC(=O)COc1cccc2c(=O)n(CC(=O)NCc3ccc(F)cc3)ccc12 | active: 1.46 µM |
| Cc1cccc(N2CCN(S(=O)(=O)c3cc(-c4cc(C)no4)ccc3C)CC2C)c1 (configuration not stated) | inconclusive: 1.03 µM [cytotoxic, full curve, poor fit] |
| Nc1ccc(-c2nc3c(Cl)c(N)ccc3[nH]2)cc1 | inconclusive: 29.1 µM [cytotoxic, single point] |
| O=C(c1cc(-c2ccc(O)cc2)on1)N1CCCC1 | inconclusive: 25.9 µM [rising, single point] |
| O=C(CNC(=O)c1ccccc1)Sc1ccccc1 | inactive |
| CC(C)(C)OC(=O)N1CCC(c2c(C(=O)O)cnn2-c2ccc(Cl)cc2)CC1 | inconclusive: 32.6 µM [cytotoxic, single point] |
| Cc1cc(NC(=O)CSc2nnc(Cc3ccccc3)o2)no1 | inactive |
| CCOC(=O)c1ccccc1NC(=O)Cc1ccc(S(=O)(=O)N2CCCC2)s1 | inactive |
| Cc1noc(/C=C/N(C)C)c1S(=O)(=O)NC1CCCCC1 | inconclusive: 29.1 µM [cytotoxic, single point] |
| CCc1ccc2c(c1)NC(c1ccc(C)cc1)=NC(c1cccs1)=N2 | inactive |
| COc1ccc(COC(=O)C2=C(C)NC(=O)NC2c2cccc(Br)c2)cc1 (configuration not stated) | inconclusive: 29.1 µM [cytotoxic, single point] |
| CNC(=O)C[C@H]1C(=O)N(CCc2ccccc2)C[C@@H]1CSC | inconclusive: 29.1 µM [rising, single point] |
| Cc1nc(N)nc(N)c1/C=C/C(C)(C)c1ccc(Cl)cc1 | inconclusive: 0.184 µM [cytotoxic, full curve] |
| O=C(CN1CCOCC1)Nc1ccc(NC(=O)c2ccccc2F)cc1 | inconclusive: 29.1 µM [rising, single point] |
| c1ccc(-c2nnc3sc(CN4CCC5(CC4)OCCO5)cn23)cc1 | inactive |

Single values from the results shown:
Entry of `COC(=O)COc1cccc2c(=O)n(CC(=O)NCc3ccc(F)cc3)ccc12` under Potency: active: 1.46 µM
Entry of `Cc1cccc(N2CCN(S(=O)(=O)c3cc(-c4cc(C)no4)ccc3C)CC2C)c1` (configuration not stated) under Potency: inconclusive: 1.03 µM [cytotoxic, full curve, poor fit]
Entry of `CCc1nnc(NC(=O)c2ccc(S(=O)(=O)N(C)c3ccccc3)cc2)o1` under Potency: inconclusive: 29.1 µM [cytotoxic, single point]

Going on with the list.

| SMILES | Potency |
| --- | --- |
| CCOc1ccccc1-c1cc(C(=O)Nc2ccc(C(=O)O)cc2)c2ccccc2n1 | inactive |
| Cc1ccc(CNc2ncnc3c2cnn3-c2ccc(Cl)cc2)cc1 | inactive |
| CCC1CCCCN1S(=O)(=O)c1ccc(S(=O)(=O)N2CCN(S(=O)(=O)CC)CC2)cc1 (configuration not stated) | inconclusive: 29.1 µM [cytotoxic, single point] |
| CCC(C)Sc1oc(-c2ccco2)nc1S(=O)(=O)c1ccc(C)cc1 (configuration not stated) | inconclusive: 18.4 µM [cytotoxic, single point] |
| Cc1ccc(C(=O)COC(=O)COc2ccccc2[N+](=O)[O-])s1 | inactive |
| CCN1CCN(c2nc(Nc3ccc(C)c(C)c3)nc(N)c2[N+](=O)[O-])CC1 | inconclusive: 25.9 µM [cytotoxic, single point] |
| O=C(NC(c1cccnc1)C(F)(F)F)c1cc(COc2ccc3c(c2)CCCC3)on1 (configuration not stated) | active: 20.6 µM |
| CCN1C(=O)[C@H]2[C@@H](c3ccc(SC4CCCCC4)c(OC)c3)N3CCCC[C@@]3(C(=O)OC)[C@H]2C1=O | inconclusive: 29.1 µM [cytotoxic, single point] |
| Cc1cc(C)nc(NC(N)=NCCc2ccccc2)n1 | active: 5.17 µM |
| CCOC(=O)N1C/C(=C\c2ccccc2)C(=O)/C(=C/c2ccccc2)C1 | inconclusive: 29.1 µM [cytotoxic, single point] |
| O=Cc1cc2ccccc2nc1SCCCF | inconclusive: 25.9 µM [cytotoxic, partial curve, poor fit] |
| CC(=O)c1c(C)[nH]c(C(=O)OCC(=O)Nc2sc3c(c2C#N)CCC(C)C3)c1C (configuration not stated) | inactive |
| CCC(=O)N(Cc1ccc(C)cc1)Cc1cc2cc3c(cc2[nH]c1=O)OCO3 | inactive |
| C=CCN1CCN(C(c2ccccc2)c2nnnn2CCC(C)C)CC1 (configuration not stated) | inconclusive: 20.6 µM [cytotoxic, single point] |
| Cc1nn(Cc2c(Cl)cccc2Cl)c(C)c1NC(=O)c1cn(-c2ccccc2)nc1-c1ccccc1 | active: 8.2 µM |
| Cn1c(=O)cc2c3c(c(N4CCCCC4)ccc31)C(=O)c1ccccc1-2 | inactive |
| COc1ccc(CCNC(=O)c2cc(-c3cc(Cl)ccc3O)n[nH]2)cc1OC | inconclusive: 20.6 µM [cytotoxic, single point] |
| Cn1c(Cc2ccccc2)nnc1SCC(=O)N1CCN(c2ccccc2)CC1 | inconclusive: 20.6 µM [cytotoxic, single point] |
| CCOCCn1c(CN(Cc2ccccc2)Cc2ccccc2)nc2c1c(=O)n(C)c(=O)n2C | inconclusive: 29.1 µM [cytotoxic, single point] |
| CCCCN(C(=O)c1ccc([N+](=O)[O-])o1)c1c(N)n(CC(C)C)c(=O)[nH]c1=O | inconclusive: 25.9 µM [rising, single point] |
| COc1ccc(-c2nnc(NC(=O)c3ccc(F)cc3)o2)cc1 | inactive |
| CNC(=S)N(CCc1c(C)[nH]c2ccc(C)cc12)Cc1cccs1 | inactive |
| O=C(c1ccc(Cl)cc1)N1CCN(c2ccnc3cc(Cl)ccc23)CC1 | inconclusive: 25.9 µM [cytotoxic, single point] |
